Entries after “also recorded” stand apart in the source; their conditions may differ. At least one structure is not confirmed: it was looked up by name or label, or the drawing left a doubt.
Columns and labels:
[1] = tested on: SEQ ID NO. 12 (GLUT4) translocation in L6 myoblasts; assay: Insulin-stimulated translocation of GLUT4 to PM fraction in L6 myoblasts and its inhibition by PI3-K inhibitor; type: cell-based, rat; details: L6 cells
Experimental: (§1) Fractionation of L6 muscle cells: L6 cells were obtained from ATCC and cultured in D.MEM medium with 10% fetal bovine serum with subculturing every three to five days. For the studies described below, cells were grown to near confluence in 100 mm dishes. Cells were harvested in 1 mL homogenization Buffer A containing 5 μL protease inhibitors using a rubber policeman. The remainder of the technique is the same as muscle microsamples. The yield of protein averaged 199±14 μg for PM and 419±22 μg for LDM. Immunoblot technique: Immunoblotting was performed essentially as previously described (11). In general, 10-20 μg protein from muscle homogenate or fractions was separated on a 10% polyacrylamide gel using the Laemmli system (12), transferred to a nitrocellulose membrane, subjected to blocking with 2.5% non-fat dry milk in phosphate-buffered saline, incubated with a validated dilution of one of the anti-GLUT antibodies above including 1.25% milk, and developed with the enhanced chemiluminescence reagent and X-ray film. Image analysis was performed on scanned film digital files using Quantity One version 4.5.2 software from Bio-Rad (Hercules, Calif.). The specificity of the antibodies employed for GLUT1 SEQ ID NO. […] After harvesting and fractionating the cells, samples from the fractions were subjected to immunoblotting and digital images were quantified by image analysis software. […]

[2] = tested on: SEQ ID NO. 16 (GLUT12) translocation in L6 myoblasts; assay: Insulin-stimulated translocation of GLUT12 to PM fraction in L6 myoblasts and its inhibition by PI3-K inhibitor; type: cell-based, rat; details: L6 cells
Experimental: as §1

[3] = LY294002 1, 10, 100 μM, insulin 10 ng/mL

SMILES: O=c1cc(N2CCOCC2)oc2c(-c3ccccc3)cccc12 [LY294002]
- Effect on GLUT4 in PM fraction in the absence of insulin ([1]; 1 μM LY294002, no insulin): stimulated translocation in the absence of insulin; also recorded: more in the PM fraction than in the absence of LY294002
- Effect on insulin-induced GLUT4 translocation [1, 3]: prevented; also recorded: reduced by the presence of LY294002 in a dose-responsive manner
- Effect on GLUT12 in PM fraction in the absence of insulin ([2]; 1 μM LY294002, no insulin): stimulated translocation in the absence of insulin; also recorded: more in the PM fraction than in the absence of LY294002
- Effect on insulin-induced GLUT12 translocation [2, 3]: prevented; also recorded: reduced by the presence of LY294002 in a dose-responsive manner

— patent US8227210B2, “Positive control proteins for glucose transporter proteins and processes for the generation of such positive control proteins” (East Tennessee State University Research Foundation, priority 2008, dated 2012)
